{"source": "PubChem BioAssay AID602196 (INSERM, 2012)", "purpose": "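Modifiers of cisplatin sensitivity in A549 cells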", "cells": "human A549 lung cancer cells", "knock-down reagent": "siRNA pair against human genes", "time to read-out": "48 h transfection before cisplatin; time from cisplatin to read-out not stated", "treatment": "cisplatin at a dose killing half of control-siRNA cells; exact dose and duration not given", "detection": "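Shift in cisplatin death relative to control siRNA, from -50 (all cells die) to +50 (no cells die); siRNAs harmful on their own scored 0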", "direction": "two-siRNA summed score (-2 to +2): higher = both siRNAs protect from cisplatin killing; -2 means both sensitise; mean protection from cisplatin (shift in death): higher = protection from cisplatin killing", "call rule": "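siRNAs harmful alone (LDH or WST-1) get 0; others get +1 for less and -1 for more cisplatin killing; genes are active when the two siRNAs give the same sign, summing to ±2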", "calls": "active = both siRNAs shift cisplatin killing the same way; inactive = no consistent shift, or siRNA harmful alone", "note": "This is an unselected part of about 23,000 deposited reagents. In the full data, 455 (2%) are marked active. 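Active includes both protection and sensitisation; some change values fall well beyond the stated -50 to +50 range.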 Entries without a mark were called inactive. Reagents against one gene are numbered here. Further read-outs or replicates are left out here. Not given: the amount of reagent."}
{"Target gene":"LOC442170","reagent":1,"two-siRNA summed score (-2 to +2)":1,"mean protection from cisplatin (shift in death) (%)":12.1}
{"Target gene":"LOC442400","reagent":1,"two-siRNA summed score (-2 to +2)":0,"mean protection from cisplatin (shift in death) (%)":7.7}
{"Target gene":"GIPC1","reagent":1,"two-siRNA summed score (-2 to +2)":0,"mean protection from cisplatin (shift in death) (%)":3.6}
{"Target gene":"SPOCK2","reagent":1,"two-siRNA summed score (-2 to +2)":1,"mean protection from cisplatin (shift in death) (%)":13.8}
{"Target gene":"KALRN","reagent":1,"two-siRNA summed score (-2 to +2)":0,"mean protection from cisplatin (shift in death) (%)":-16.5}
{"Target gene":"KALRN","reagent":2,"two-siRNA summed score (-2 to +2)":1,"mean protection from cisplatin (shift in death) (%)":14.3}
{"Target gene":"DLC1","reagent":1,"two-siRNA summed score (-2 to +2)":0,"mean protection from cisplatin (shift in death) (%)":-5.3}
{"Target gene":"MPO","reagent":1,"two-siRNA summed score (-2 to +2)":0,"mean protection from cisplatin (shift in death) (%)":3}
{"Target gene":"MCAT","reagent":1,"two-siRNA summed score (-2 to +2)":0,"mean protection from cisplatin (shift in death) (%)":8.3}
{"Target gene":"NOX5","reagent":1,"two-siRNA summed score (-2 to +2)":0,"mean protection from cisplatin (shift in death) (%)":-4.2}
{"Target gene":"LOC387905","reagent":1,"two-siRNA summed score (-2 to +2)":0,"mean protection from cisplatin (shift in death) (%)":-12.7}
{"Target gene":"LCE2B","reagent":1,"two-siRNA summed score (-2 to +2)":-1,"mean protection from cisplatin (shift in death) (%)":-10.5}
{"Target gene":"ALLC","reagent":1,"two-siRNA summed score (-2 to +2)":0,"mean protection from cisplatin (shift in death) (%)":7.2}
{"Target gene":"PZP","reagent":1,"two-siRNA summed score (-2 to +2)":0,"mean protection from cisplatin (shift in death) (%)":5.1}
{"Target gene":"LOC442279","reagent":1,"two-siRNA summed score (-2 to +2)":0,"mean protection from cisplatin (shift in death) (%)":14.2}
{"Target gene":"SVOPL","reagent":1,"two-siRNA summed score (-2 to +2)":0,"mean protection from cisplatin (shift in death) (%)":5.4}
{"Target gene":"ATMIN","reagent":1,"two-siRNA summed score (-2 to +2)":0,"mean protection from cisplatin (shift in death) (%)":9.5}
{"Target gene":"LOC390551","reagent":1,"two-siRNA summed score (-2 to +2)":0,"mean protection from cisplatin (shift in death) (%)":3.6}
{"Target gene":"LOC389311","reagent":1,"two-siRNA summed score (-2 to +2)":1,"mean protection from cisplatin (shift in death) (%)":15}
{"Target gene":"CCNK","reagent":1,"two-siRNA summed score (-2 to +2)":0,"mean protection from cisplatin (shift in death) (%)":-7.6}
{"Target gene":"TNNI2","reagent":1,"two-siRNA summed score (-2 to +2)":1,"mean protection from cisplatin (shift in death) (%)":10.4}

2 of these entries, reformatted.
Target gene | reagent | two-siRNA summed score (-2 to +2) | mean protection from cisplatin (shift in death) (%)
CCNK | 1 | 0 | -7.6
TNNI2 | 1 | 1 | 10.4
